Experiment [1] deals with T1, F-box and leucine rich repeat protein 19 (mouse (endogenous in BALB/c lung tissue and MLE-12 cells)) (UniProt Q6PB97).
T1 sequence: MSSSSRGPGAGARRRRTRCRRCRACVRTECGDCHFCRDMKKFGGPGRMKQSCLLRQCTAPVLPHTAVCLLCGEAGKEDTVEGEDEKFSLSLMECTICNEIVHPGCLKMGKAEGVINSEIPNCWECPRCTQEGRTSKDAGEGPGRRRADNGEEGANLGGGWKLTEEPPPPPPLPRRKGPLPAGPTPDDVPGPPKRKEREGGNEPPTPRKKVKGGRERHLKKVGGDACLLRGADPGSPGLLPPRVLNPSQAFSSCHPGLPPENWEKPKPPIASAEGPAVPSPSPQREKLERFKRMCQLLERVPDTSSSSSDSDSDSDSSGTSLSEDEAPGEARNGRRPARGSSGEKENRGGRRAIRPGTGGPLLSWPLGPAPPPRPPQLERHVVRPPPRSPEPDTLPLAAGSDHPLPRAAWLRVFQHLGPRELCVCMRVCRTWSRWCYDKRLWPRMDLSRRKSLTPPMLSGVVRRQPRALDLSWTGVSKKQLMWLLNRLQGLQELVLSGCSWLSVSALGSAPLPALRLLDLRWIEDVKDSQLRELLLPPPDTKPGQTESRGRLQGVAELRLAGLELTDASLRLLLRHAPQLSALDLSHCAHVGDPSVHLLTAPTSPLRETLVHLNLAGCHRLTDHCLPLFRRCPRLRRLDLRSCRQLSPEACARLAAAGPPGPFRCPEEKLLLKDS
Kind of experiment: co-IP; lysate of untreated MLE-12 cells in RIPA buffer; anti-FBXL19 (IgG as control) at 4 C overnight, protein A/G beads, Western blot. In general terms: A western blot detects proteins with antibodies after separation by electrophoresis.

Experiment [2] has as its target T1, F-box and leucine rich repeat protein 19 (mouse (endogenous in BALB/c lung tissue and MLE-12 cells)). Description: co-IP; lysate of SPN mouse lung tissue in RIPA buffer; anti-FBXL19 (IgG as control) at 4 C overnight, protein A/G beads, Western blot.

No constants are given. Whether binding was seen depends on the method and setting. In cells and extracts the contact can be indirect. Some binding calls cover weakened binding; strength is not graded here.

B1: forkhead box M1 (protein, UniProt O08696 1-760)
chain: MRTSPRRPLILKRRRLPLPVQNAPSETSEEEAKRSPAQPEPAPAQASQEVAESSSCKFPAGIKIINHPTTPNTQVVAIPSNADIQSIITALTAKGKESGTSGPNRFILISSGGPSSHPSQPQAHSSRDSKRAEVITETLGPKPAAKGVPVPKPPGAPPRQRQESYAGGEAAGCTLDNSLTNIQWLGKMSSDGLGPCSVKQELEEKENCHLEQNRVKVEEPSGVSTSWQDSVSERPPYSYMAMIQFAINSTERKRMTLKDIYTWIEDHFPYFKHIAKPGWKNSIRHNLSLHDMFVRETSANGKVSFWTIHPSANRHLTLDQVFKPLEPGSPQSPEHLESQQKRPNPELHRNVTIKTEIPLGARRKMKPLLPRVSSYLEPIQFPVNQSLVLQPSVKVPFRLAASLMSSELARHSKRVRIAPKVLLSSEGIAPLPATEPPKEEKPLLGGEGLLPLLPIQSIKEEEMQPEEDIAHLERPIKVESPPLEEWPSPCASLKEELSNSWEDSSCSPTPKPKKSYCGLKSPTRCVSEMLVTKRREKREVSRSRRKQHLQPPCLDEPDLFFPEDSSTFRPAVELLAESSEPAPHLSCPQEEGGPFKTPIKETLPVSSTPSKSVLSRDPESWRLTPPAKVGGLDFSPVRTPQGAFGLLPDSLGLMELNTTPLKSGPLFDSPRELLNSEPFDLASDPFGSPPPPHVEGPKPGSPELQIPSLSANRSLTEGLVLDTMNDSLSKILLDISFPGLEEDPLGPDNINWSQFIPELR
As to B1, the binding entry in experiment [1] and in experiment [2] was “binds” in each case.

The record behind these values is paper PMC10037874.
